Laboratory results: PubChem BioAssay AID1224826 (NIAID, 2016)
The deposit covers about 17,000 reagents; below is a random part of them. About 1,110 of all reagents (6.6%) were called active. 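Active means lowered or raised reporter signal; replicate intensities are raw and not normalised per plate.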 Unmarked entries are inactive. Not all columns of the deposit are shown.

Assay: 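Regulators of Tlr4 signalling leading to Tnf-alpha expression in macrophages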 (primary screen)
System: RAW264.7 G9 macrophages from mouse bearing reporters for p65 (GFP) and the Tnf promoter (mCherry)
Reagents: siRNA pool against mouse genes, 100 nM
Timing: 16 h of LPS stimulation, after 2 days of siRNA transfection
Treatment: bacterial lipopolysaccharide (Salmonella minnesota R595), 10 ng/ml
Detection: 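Imaged Tnf reporter mCherry in nuclei, minus background, normalised per plate to the median and expressed as robust z-scores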
Scale: Tnf reporter robust z-score: higher = stronger Tnf promoter reporter signal after LPS
Active means: 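a well counts as active at a score of -1.3 or below (Tlr4 knock-down control median) or above 3 (raised signal); controls and wells holding fewer than 50 cells are excluded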
Calls: active = Tnf reporter clearly lowered or raised; inactive = no clear change in Tnf reporter

| gene knocked down | PubChem SID | Tnf reporter robust z-score | fewer than 50 cells in well |
| --- | --- | --- | --- |
| Eif1 (GeneID 20918) | SID315469526 | -1.43 (active) | enough cells in well |
| Tas2r125 (GeneID 387352) | SID315481864 | 0.06 | enough cells in well |
| Tmem216 (GeneID 68642) | SID315473593 | -0.35 | enough cells in well |
| Ckb (GeneID 12709) | SID315465980 | 0.06 | enough cells in well |
| Mrps17 (GeneID 66258) | SID315472323 | -0.96 | enough cells in well |
| Phc3 (GeneID 241915) | SID315479589 | 0.14 | enough cells in well |
| Eef1a1 (GeneID 13627) | SID315466443 | -1.1 | enough cells in well |
| Ribc1 (GeneID 66611) | SID315472539 | -1.59 (active) | enough cells in well |
| Prss45 (GeneID 260408) | SID315480736 | -0.1 | enough cells in well |
| Ncoa5 (GeneID 228869) | SID315478670 | -1.11 | enough cells in well |
| Zfp710 (GeneID 209225) | SID315477584 | -0.75 | enough cells in well |
| Spag4 (GeneID 245865) | SID315479842 | -0.81 | enough cells in well |
| Zfp689 (GeneID 71131) | SID315474188 | -0.85 | enough cells in well |
| Elp5 (GeneID 54351) | SID315471197 | 0.98 | enough cells in well |
| Kdm4c (GeneID 76804) | SID315475384 | 1 | enough cells in well |
| Zfa-ps (GeneID 22639) | SID315470086 | 0.72 | enough cells in well |
| Ca5a (GeneID 12352) | SID315465760 | 0.21 | enough cells in well |
| Elovl5 (GeneID 68801) | SID315473639 | 1.22 | enough cells in well |
| Pde5a (GeneID 242202) | SID315479601 | -0.55 | enough cells in well |
| Klb (GeneID 83379) | SID315475806 | -0.64 | enough cells in well |
| Eif3k (GeneID 73830) | SID315474788 | 2.29 | enough cells in well |
| Tmprss11f (GeneID 243083) | SID315479662 | -0.16 | enough cells in well |
| Tfe3 (GeneID 209446) | SID315477595 | 0.3 | enough cells in well |
| C1s2 (GeneID 317677) | SID315481029 | 0.2 | enough cells in well |
| Actl11 (GeneID 67722) | SID315473189 | -0.53 | enough cells in well |
| Or8c17 (GeneID 258875) | SID315480507 | 3.75 (active) | enough cells in well |
| Hdac6 (GeneID 15185) | SID315467168 | 0.65 | enough cells in well |
| Cdh26 (GeneID 381409) | SID315481786 | 0.57 | enough cells in well |
| Slc45a2 (GeneID 22293) | SID315469962 | 0.27 | enough cells in well |
| Pus7 (GeneID 78697) | SID315475602 | 0.02 | enough cells in well |
| Hsd11b2 (GeneID 15484) | SID315467308 | 0.35 | enough cells in well |
| Pcdha12 (GeneID 192164) | SID315477385 | 1.43 | enough cells in well |
| Gpr87 (GeneID 84111) | SID315475894 | 0.23 | enough cells in well |
| Rusc1 (GeneID 72296) | SID315474509 | 3.24 (active) | enough cells in well |
| Akr1a1 (GeneID 58810) | SID315471918 | 0.98 | enough cells in well |
| Ccdc83 (GeneID 75338) | SID315475105 | -0.27 | enough cells in well |
| Mrps6 (GeneID 121022) | SID315477108 | 0.13 | enough cells in well |
| Trip4 (GeneID 56404) | SID315471511 | 0.04 | enough cells in well |

Continued; the last 7 above are carried over.
| gene knocked down | PubChem SID | Tnf reporter robust z-score | fewer than 50 cells in well |
| --- | --- | --- | --- |
| Pcdha12 (GeneID 192164) | SID315477385 | 1.43 | enough cells in well |
| Gpr87 (GeneID 84111) | SID315475894 | 0.23 | enough cells in well |
| Rusc1 (GeneID 72296) | SID315474509 | 3.24 (active) | enough cells in well |
| Akr1a1 (GeneID 58810) | SID315471918 | 0.98 | enough cells in well |
| Ccdc83 (GeneID 75338) | SID315475105 | -0.27 | enough cells in well |
| Mrps6 (GeneID 121022) | SID315477108 | 0.13 | enough cells in well |
| Trip4 (GeneID 56404) | SID315471511 | 0.04 | enough cells in well |
| Gcgr (GeneID 14527) | SID315466853 | 0.97 | enough cells in well |
| Catsper1 (GeneID 225865) | SID315478440 | 0.55 | enough cells in well |
| Vmn1r36 (GeneID 171184) | SID315477273 | 2.83 | enough cells in well |
| Slc30a7 (GeneID 66500) | SID315472479 | – | fewer than 50 cells per well; well left out of calls |
| Zcrb1 (GeneID 67197) | SID315472892 | – | fewer than 50 cells per well; well left out of calls |
| Rprm (GeneID 67874) | SID315473279 | -0.46 | enough cells in well |
| Pim2 (GeneID 18715) | SID315468517 | 0.22 | enough cells in well |
| Tut4 (GeneID 230594) | SID315478793 | -0.27 | enough cells in well |
| Itfg1 (GeneID 71927) | SID315474382 | 2.46 | enough cells in well |
| Mapkapk5 (GeneID 17165) | SID315467828 | -0.58 | enough cells in well |
| Elp2 (GeneID 58523) | SID315471908 | 0.11 | enough cells in well |
| Tlr13 (GeneID 279572) | SID315481015 | 0.15 | enough cells in well |
| Aox4 (GeneID 71872) | SID315474357 | -1.05 | enough cells in well |
| 2810021J22Rik (GeneID 69944) | SID315473942 | 1.27 | enough cells in well |
| Rsbn1 (GeneID 229675) | SID315478727 | 3.32 (active) | enough cells in well |
| Ikzf5 (GeneID 67143) | SID315472864 | 0.39 | enough cells in well |
| Abcc8 (GeneID 20927) | SID315469531 | -1.29 | enough cells in well |
| Abcc8 (GeneID 20927) | SID315481602 | 1.62 | enough cells in well |
| Agap3 (GeneID 213990) | SID315477834 | 1.16 | enough cells in well |
| Agap1 (GeneID 347722) | SID315481691 | 1.71 | enough cells in well |
